Data: the supplement of paper PMC10849652
Some of the results follow.

Chains of the proteins cited; added tags and fusions are not shown. Lines headed by an entry give the natural chain unless they say otherwise; changes in a name come on top.
UniProt Q6YP21: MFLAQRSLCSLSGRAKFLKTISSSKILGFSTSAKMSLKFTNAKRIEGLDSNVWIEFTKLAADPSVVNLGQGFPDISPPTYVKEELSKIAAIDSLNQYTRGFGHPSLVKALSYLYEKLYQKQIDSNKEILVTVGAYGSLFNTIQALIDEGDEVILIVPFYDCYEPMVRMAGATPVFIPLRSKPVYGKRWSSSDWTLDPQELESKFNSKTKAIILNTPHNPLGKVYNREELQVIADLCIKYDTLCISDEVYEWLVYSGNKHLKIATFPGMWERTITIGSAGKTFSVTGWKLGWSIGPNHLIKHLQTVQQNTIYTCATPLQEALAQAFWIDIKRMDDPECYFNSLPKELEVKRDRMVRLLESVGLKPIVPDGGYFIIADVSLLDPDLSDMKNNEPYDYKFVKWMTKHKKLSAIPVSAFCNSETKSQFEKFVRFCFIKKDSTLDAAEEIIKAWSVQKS
UniProt Q9H9A6: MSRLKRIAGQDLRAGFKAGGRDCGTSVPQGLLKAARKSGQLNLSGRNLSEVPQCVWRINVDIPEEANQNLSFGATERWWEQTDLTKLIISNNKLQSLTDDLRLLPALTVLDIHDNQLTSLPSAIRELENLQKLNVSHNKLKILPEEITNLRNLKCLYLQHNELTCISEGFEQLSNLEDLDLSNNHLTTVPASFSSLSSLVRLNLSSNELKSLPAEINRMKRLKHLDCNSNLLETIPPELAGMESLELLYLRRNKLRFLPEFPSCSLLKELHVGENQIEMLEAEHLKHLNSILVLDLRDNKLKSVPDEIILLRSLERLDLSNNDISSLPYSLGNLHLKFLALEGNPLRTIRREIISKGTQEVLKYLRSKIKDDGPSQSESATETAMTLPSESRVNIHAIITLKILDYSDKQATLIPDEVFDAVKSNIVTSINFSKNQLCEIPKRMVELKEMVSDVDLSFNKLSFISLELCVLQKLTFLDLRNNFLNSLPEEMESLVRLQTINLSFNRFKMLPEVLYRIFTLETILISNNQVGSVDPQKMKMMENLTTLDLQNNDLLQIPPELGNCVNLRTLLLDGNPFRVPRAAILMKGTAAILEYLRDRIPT
UniProt P50851: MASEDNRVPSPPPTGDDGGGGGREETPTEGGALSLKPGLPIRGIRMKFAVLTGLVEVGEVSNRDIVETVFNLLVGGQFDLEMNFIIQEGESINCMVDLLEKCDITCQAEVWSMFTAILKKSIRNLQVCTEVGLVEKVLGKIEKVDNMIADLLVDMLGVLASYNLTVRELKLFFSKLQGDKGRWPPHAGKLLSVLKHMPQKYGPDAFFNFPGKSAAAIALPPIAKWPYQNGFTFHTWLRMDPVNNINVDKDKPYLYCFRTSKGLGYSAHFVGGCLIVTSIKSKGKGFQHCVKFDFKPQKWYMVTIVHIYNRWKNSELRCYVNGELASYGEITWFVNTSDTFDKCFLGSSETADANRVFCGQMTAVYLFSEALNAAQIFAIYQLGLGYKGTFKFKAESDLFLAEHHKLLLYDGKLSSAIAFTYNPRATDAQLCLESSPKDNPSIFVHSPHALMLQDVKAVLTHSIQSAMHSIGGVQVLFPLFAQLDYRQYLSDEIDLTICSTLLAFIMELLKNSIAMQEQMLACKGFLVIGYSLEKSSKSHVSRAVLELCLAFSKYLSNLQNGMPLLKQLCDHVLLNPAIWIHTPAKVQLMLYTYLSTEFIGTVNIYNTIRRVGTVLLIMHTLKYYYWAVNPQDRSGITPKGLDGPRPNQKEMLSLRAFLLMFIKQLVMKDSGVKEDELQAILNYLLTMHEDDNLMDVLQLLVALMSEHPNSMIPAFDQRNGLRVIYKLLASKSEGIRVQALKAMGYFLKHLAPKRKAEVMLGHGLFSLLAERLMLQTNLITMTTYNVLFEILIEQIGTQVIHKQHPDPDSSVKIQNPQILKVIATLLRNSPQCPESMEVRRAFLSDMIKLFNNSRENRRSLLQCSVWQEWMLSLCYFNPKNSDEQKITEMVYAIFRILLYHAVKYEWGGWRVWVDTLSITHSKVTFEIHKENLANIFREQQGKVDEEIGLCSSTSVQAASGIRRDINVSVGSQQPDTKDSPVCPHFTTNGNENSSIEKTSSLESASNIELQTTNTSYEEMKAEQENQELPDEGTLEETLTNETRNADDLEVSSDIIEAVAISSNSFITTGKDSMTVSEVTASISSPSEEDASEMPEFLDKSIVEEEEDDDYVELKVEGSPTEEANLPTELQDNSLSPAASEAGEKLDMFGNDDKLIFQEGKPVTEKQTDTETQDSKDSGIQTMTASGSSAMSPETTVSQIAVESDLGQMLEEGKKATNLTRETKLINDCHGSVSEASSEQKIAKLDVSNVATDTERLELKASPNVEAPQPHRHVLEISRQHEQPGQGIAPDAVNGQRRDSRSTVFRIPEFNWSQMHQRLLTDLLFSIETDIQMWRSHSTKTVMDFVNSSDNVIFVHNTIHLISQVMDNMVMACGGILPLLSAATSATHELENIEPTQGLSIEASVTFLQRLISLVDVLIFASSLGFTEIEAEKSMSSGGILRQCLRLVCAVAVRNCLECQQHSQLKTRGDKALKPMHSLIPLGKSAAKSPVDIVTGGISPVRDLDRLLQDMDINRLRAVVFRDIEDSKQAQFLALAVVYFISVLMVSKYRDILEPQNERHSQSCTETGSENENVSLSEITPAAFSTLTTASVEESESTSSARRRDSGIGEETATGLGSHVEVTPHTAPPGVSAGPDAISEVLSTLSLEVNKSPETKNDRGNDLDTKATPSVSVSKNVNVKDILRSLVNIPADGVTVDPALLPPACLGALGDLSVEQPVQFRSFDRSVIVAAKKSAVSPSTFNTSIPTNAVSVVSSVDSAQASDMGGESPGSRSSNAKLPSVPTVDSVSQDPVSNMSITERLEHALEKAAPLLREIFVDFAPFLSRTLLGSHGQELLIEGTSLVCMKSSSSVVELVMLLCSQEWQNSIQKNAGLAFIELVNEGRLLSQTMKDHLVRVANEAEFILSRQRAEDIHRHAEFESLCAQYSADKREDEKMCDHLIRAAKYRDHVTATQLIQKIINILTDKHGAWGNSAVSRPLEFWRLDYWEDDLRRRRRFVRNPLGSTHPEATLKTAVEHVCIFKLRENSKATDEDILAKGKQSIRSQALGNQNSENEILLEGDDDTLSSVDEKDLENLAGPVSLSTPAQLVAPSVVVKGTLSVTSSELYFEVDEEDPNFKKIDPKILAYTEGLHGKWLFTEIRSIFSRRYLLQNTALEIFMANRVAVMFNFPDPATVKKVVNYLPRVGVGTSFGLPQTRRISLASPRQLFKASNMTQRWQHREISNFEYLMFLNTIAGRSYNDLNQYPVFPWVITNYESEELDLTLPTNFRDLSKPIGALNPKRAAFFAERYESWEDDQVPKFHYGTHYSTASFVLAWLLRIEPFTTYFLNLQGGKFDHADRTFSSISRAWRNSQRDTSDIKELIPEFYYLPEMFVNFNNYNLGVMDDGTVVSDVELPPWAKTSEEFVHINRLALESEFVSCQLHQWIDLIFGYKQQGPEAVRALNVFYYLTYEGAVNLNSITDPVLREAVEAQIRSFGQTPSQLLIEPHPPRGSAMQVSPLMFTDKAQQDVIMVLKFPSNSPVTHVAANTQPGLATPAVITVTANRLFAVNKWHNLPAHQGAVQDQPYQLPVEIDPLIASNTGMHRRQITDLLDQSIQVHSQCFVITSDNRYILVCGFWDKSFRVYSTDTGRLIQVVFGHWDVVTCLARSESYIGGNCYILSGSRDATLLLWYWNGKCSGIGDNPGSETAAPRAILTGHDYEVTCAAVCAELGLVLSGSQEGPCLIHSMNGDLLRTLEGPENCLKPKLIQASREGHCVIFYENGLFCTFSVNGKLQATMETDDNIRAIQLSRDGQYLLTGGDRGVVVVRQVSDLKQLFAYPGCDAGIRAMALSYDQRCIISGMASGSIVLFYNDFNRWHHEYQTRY
UniProt P09382, whole entry, looked up: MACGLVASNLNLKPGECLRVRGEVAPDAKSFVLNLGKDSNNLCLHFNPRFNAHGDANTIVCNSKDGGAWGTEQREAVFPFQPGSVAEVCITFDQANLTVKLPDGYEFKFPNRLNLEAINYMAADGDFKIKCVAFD
UniProt Q86UP2: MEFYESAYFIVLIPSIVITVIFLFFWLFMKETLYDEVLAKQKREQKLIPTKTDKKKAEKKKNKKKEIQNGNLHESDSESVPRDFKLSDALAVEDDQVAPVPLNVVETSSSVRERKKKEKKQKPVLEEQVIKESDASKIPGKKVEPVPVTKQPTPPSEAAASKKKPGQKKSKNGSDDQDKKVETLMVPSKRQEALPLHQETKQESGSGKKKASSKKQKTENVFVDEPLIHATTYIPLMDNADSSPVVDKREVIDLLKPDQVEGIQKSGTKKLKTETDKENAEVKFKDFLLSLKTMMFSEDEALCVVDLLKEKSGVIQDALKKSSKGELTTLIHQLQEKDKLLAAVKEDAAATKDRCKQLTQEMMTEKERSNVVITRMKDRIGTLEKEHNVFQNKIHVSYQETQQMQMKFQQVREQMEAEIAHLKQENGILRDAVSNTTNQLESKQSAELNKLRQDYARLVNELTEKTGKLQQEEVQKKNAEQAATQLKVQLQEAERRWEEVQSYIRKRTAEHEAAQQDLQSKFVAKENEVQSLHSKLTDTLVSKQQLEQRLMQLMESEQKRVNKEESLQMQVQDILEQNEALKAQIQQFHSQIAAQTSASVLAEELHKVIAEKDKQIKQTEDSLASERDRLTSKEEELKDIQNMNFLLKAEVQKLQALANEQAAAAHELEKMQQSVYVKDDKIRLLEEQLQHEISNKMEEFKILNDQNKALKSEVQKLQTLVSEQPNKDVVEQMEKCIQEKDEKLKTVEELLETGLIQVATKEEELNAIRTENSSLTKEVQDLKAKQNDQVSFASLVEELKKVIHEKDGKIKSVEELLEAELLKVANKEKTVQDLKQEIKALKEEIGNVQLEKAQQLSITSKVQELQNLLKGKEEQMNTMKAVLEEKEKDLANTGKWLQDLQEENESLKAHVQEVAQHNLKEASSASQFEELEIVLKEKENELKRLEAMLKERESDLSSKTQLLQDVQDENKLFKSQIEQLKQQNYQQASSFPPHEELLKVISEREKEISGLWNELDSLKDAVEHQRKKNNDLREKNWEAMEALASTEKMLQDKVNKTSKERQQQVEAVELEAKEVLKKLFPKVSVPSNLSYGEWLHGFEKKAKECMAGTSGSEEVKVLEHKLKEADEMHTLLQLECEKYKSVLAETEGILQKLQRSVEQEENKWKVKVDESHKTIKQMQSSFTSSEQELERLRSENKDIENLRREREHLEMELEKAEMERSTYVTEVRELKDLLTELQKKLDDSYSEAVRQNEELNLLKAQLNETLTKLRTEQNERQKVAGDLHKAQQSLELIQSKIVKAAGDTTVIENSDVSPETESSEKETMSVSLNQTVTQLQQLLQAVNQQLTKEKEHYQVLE
UniProt Q6IAA8, whole entry, looked up: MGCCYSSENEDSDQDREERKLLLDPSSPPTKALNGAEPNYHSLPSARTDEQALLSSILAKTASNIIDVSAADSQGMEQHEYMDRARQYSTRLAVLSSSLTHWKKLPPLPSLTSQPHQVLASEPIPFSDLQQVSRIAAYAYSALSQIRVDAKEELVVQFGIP
UniProt Q14693: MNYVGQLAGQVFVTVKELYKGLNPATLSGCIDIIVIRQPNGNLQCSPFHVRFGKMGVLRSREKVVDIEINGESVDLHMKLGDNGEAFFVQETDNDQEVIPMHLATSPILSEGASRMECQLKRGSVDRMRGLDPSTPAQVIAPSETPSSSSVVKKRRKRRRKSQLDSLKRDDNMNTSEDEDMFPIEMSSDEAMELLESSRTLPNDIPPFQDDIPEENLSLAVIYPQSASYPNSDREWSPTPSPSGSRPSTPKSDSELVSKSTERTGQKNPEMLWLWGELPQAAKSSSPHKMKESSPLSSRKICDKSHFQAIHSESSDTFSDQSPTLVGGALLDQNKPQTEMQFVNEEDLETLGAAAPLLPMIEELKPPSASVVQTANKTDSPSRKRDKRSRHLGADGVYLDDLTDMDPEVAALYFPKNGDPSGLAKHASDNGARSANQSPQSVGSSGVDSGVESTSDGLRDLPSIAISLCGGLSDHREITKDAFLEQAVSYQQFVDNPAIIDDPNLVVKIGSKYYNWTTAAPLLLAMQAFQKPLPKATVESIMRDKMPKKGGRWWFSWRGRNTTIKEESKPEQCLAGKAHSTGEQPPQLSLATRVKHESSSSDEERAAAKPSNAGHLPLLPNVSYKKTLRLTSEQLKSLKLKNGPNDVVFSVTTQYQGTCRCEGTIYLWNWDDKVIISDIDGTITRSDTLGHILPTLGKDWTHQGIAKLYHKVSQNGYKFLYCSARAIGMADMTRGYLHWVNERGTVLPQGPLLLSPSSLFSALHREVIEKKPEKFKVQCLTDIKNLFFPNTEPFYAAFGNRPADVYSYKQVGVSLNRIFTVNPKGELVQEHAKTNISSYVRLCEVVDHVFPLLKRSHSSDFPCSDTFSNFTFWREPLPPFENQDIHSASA

Assays:
Assay in all cases: log2 fold change, soluble protein after heating vs DMSO (PISA); higher = thermal stabilisation; K562 cells, 10 uM, 30 min; active = over 0.2 and 3.5 SD of the protein, either way, in both replicates (recomputed)
[1] = compound: Cc1ccc(NC(=O)c2ccc(CN3CC[C@H](N(C)C)C3)c(C(F)(F)F)c2)cc1Nc1nccc(-c2cncnc2)n1 [bafetinib]
Summary of the method: (§1)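 K562 cells at 2×10^6 cells/mL were treated for 30 min with 10 μM compound, and aliquots were heated for 3 min over 48°C-58°C before pooling. Extraction used PBS with 0.5% NP-40 at 4°C, and soluble protein was the supernatant after 21,000xg for 90 min, measured by TMTpro 16plex LC-MS/MS with channel sums equalised. Thermal stability values, relative to control samples and from duplicates, are log2 fold changes.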

[2] = compound: Cc1cccc(CC(=O)N2CCc3c2ccc(-c2cn(C)c4ncnc(N)c24)c3F)n1
Summary of the method: as §1

[3] = compound: Cc1cn(-c2cc(NC(=O)c3ccc(C)c(Nc4nccc(-c5cccnc5)n4)c3)cc(C(F)(F)F)c2)cn1 [nilotinib]
Summary of the method: as §1

[4] = compound: Cc1nc(Nc2n[nH]c3c2CN(C(=O)N[C@H](CN(C)C)c2ccccc2)C3(C)C)c2sccc2n1
Summary of the method: as §1

[5] = compound: Cc1nc(Nc2ncc(C(=O)Nc3c(C)cccc3Cl)s2)cc(N2CCN(CCO)CC2)n1 [dasatinib]
Summary of the method: as §1

[6] = compound: Cc1ncc(-c2ccnc(Nc3ccc(S(C)(=O)=O)cc3)n2)n1C(C)C
Summary of the method: as §1

[7] = compound: Cn1cc(-c2ccc3c(c2)CCN3C(=O)Cc2cccc(C(F)(F)F)c2)c2c(N)ncnc21
Summary of the method: as §1

[8] = compound: Cn1cc(-c2ccc3nnc(C(F)(F)c4ccc5ncccc5c4)n3n2)cn1
Summary of the method: as §1

[9] = compound: Cn1cncc1[C@@](N)(c1ccc(Cl)cc1)c1ccc2c(c1)c(-c1cccc(Cl)c1)cc(=O)n2C [tipifarnib]
Summary of the method: as §1

[10] = compound: FC(F)(F)c1ccc(/C=C/c2nc(COc3ccc(CCCCn4ccnn4)cc3)co2)cc1 [mubritinib]
Summary of the method: as §1

[11] = compound: NC(=O)Nc1cc(-c2cccc(F)c2)sc1C(=O)N[C@H]1CCCNC1
Summary of the method: as §1

[12] = compound: NC(=O)c1cnc(N[C@@H]2CCCC[C@@H]2N)nc1Nc1cccc(-n2nccn2)c1
Summary of the method: as §1

[13] = compound: NC1(c2ccc(-c3nc4ccn5c(=O)[nH]nc5c4cc3-c3ccccc3)cc2)CCC1
Summary of the method: as §1

[14] = compound: NCC(=O)Nc1ccc(-n2nc(C(F)(F)F)cc2-c2ccc3c(ccc4ccccc43)c2)cc1
Summary of the method: as §1

[15] = compound: Nc1ccccc1NC(=O)c1ccc(CNC(=O)OCc2cccnc2)cc1 [entinostat]
Summary of the method: as §1

[16] = compound: O=C(CCCCCCC(=O)Nc1ccccc1)NO [vorinostat]
Summary of the method: as §1

[17] = compound: O=C(CCCCCCNC(=O)c1cnc(N(c2ccccc2)c2ccccc2Cl)nc1)NO [citarinostat]
Summary of the method: as §1

[18] = compound: O=C(O)c1ccc2c(c1)nc(Nc1cccc(Cl)c1)c1ccncc12 [silmitasertib]
Summary of the method: as §1

[19] = compound: O=C1NC(=O)C(c2cnc3ccccn23)=C1c1cn2c3c(cc(F)cc13)CN(C(=O)N1CCCCC1)CC2
Summary of the method: as §1

[20] = compound: c1cc(OCCN2CCCCC2)cc(-c2n[nH]c3ccc(-c4nnc[nH]4)cc23)c1
Summary of the method: as §1

Measured: log2 fold change

KYAT3 (UniProt Q6YP21)
inactive: [1] -0.028 | [2] -0.027 | [3] -0.026 | [4] 0.016 | [5] 0.045 | [6] -0.013 | [7] -0.006 | [8] 0.042 | [9] -0.014 | [10] 0.016 | [11] 0.02 | [12] 0 | [13] -0.019 | [14] -0.009 | [15] -0.03 | [16] -0.002 | [17] 0.013 | [18] 0.01 | [19] -0.025 | [20] -0.043

LDHA isoform 3 (UniProt P00338)
inactive: [1] 0.024 | [2] -0.026 | [3] 0.031 | [4] 0.006 | [5] 0.002 | [6] 0.014 | [7] 0.01 | [8] 0.024 | [9] -0.036 | [10] 0.018 | [11] 0.069 | [12] 0.015 | [13] 0.021 | [14] 0.046 | [15] -0.013 | [16] -0.005 | [17] 0.028 | [18] -0.052 | [19] -0.004 | [20] -0.029

LRRC40 (UniProt Q9H9A6)
inactive: [1] 0.014 | [2] 0.011 | [3] -0.035 | [4] -0.182 | [5] -0.25 | [6] -0.026 | [7] -0.002 | [8] 0.051 | [9] -0.103 | [10] 0.108 | [11] -0.044 | [12] -0.065 | [13] -0.199 | [14] -0.07 | [15] 0.08 | [16] 0.048 | [17] -0.014 | [18] 0.04 | [19] -0.022 | [20] -0.124

LRBA (UniProt P50851)
inactive: [1] -0.047 | [2] 0.053 | [3] -0.067 | [4] -0.022 | [5] -0.061 | [6] 0.014 | [7] 0.047 | [8] 0.002 | [9] -0.06 | [10] 0.024 | [11] 0.002 | [12] -0.058 | [13] -0.146 | [14] -0.039 | [15] 0.016 | [16] 0.049 | [17] 0.034 | [18] 0.033 | [19] -0.025 | [20] -0.026

LGALS1 (UniProt P09382)
inactive: [1] 0.017 | [2] 0.066 | [3] -0.005 | [4] 0.013 | [5] 0.057 | [6] 0.002 | [7] 0.08 | [8] 0.038 | [9] -0.018 | [10] 0.022 | [11] 0.073 | [12] -0.016 | [13] -0.018 | [14] 0.067 | [15] 0.025 | [16] 0.001 | [17] 0.039 | [18] -0.041 | [19] -0.065 | [20] -0.016

KTN1 (UniProt Q86UP2)
inactive: [1] 0.042 | [2] 0.013 | [3] -0.117 | [4] 0.055 | [5] -0.013 | [6] 0.063 | [7] -0.081 | [8] -0.03 | [9] -0.064 | [10] -0.032 | [11] 0.036 | [12] 0.06 | [13] 0.035 | [14] -0.038 | [15] 0.05 | [16] 0.027 | [17] 0.033 | [18] 0.06 | [19] 0.148 | [20] -0.189

LAMTOR1 (UniProt Q6IAA8)
inactive: [1] -0.072 | [2] 0.042 | [3] -0.036 | [4] -0.04 | [5] 0.012 | [6] -0.043 | [7] -0.002 | [8] 0.051 | [9] 0.004 | [10] 0.016 | [11] 0.019 | [12] -0.108 | [13] -0.255 | [14] -0.006 | [15] 0.088 | [16] -0.034 | [17] 0.029 | [18] -0.09 | [19] -0.122 | [20] 0.126

LPIN1 isoform 7 (UniProt Q14693)
inactive: [1] -0.076 | [2] 0.051 | [3] -0.038 | [4] 0.046 | [5] -0.016 | [6] -0.079 | [7] -0.025 | [8] -0.058 | [9] -0.019 | [10] 0.095 | [11] -0.006 | [12] -0.011 | [13] -0.039 | [14] -0.03 | [15] -0.027 | [16] 0.136 | [17] 0.001 | [18] -0.139 | [19] -0.098 | [20] -0.048
